Measured values as given in patent publication US11064699B2, “Condensed heterocyclic compound or salt thereof, agricultural and horticultural insecticide comprising the compound or the salt, and method for using the insecticide” (Nihon Nohyaku Co., Ltd., priority 2017, dated 2021).
Some entries share one result that the patent states for a list of compounds.

Test system: Myzus persicae
Test: Test for control efficacy on Myzus persicae (foliar application, potted Chinese cabbage)
Assay type: in vivo
Details: 500 ppm, foliar application to Chinese cabbage, 6 days after application

| Compound | control efficacy (control rate), activity level |
| --- | --- |
| CCS(=O)(=O)c1cc2ccc(C(F)(F)F)cc2nc1-c1nnc2cc(C(F)(F)C(F)(F)F)ncn12 [Compound 4-27, 3-(ethylsulfonyl)-2-(7-pentafluoroethyl)-[1,2,4]triazolo[4,3-c]pyrimidin-3-yl-7-(trifluoromethyl) quinoline] | A (the control rate is 100%) |
| CCS(=O)(=O)c1cc(-c2cccc(C(F)(F)F)c2)cnc1-c1nnc2cc(C(F)(F)F)ncn12 [Compound 2-36, 3-(3-(ethylsulfonyl)-5-(3-(trifluoromethyl)phenyl)pyridin-2-yl)-(7-trifluoromethyl)-[1,2,4]Triazolo[4,3-c]Pyrimidine] | A (the control rate is 100%) |
